Data as given in PubChem BioAssay AID602196 (INSERM, 2012).
Aim: 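Genes whose knock-down alters cisplatin killing of lung cancer cells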. Cells: human A549 lung cancer cells. Reagent: siRNA pair against human genes. Time to read-out: 48 h transfection before cisplatin; time from cisplatin to read-out not stated. Challenge: cisplatin at a dose killing half of control-siRNA cells; exact dose and duration not given. Read-out: 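Cisplatin cell death as a shift from the 50% death seen with control siRNA; siRNAs toxic or growth-blocking alone scored 0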. Reading the numbers: two-siRNA summed score (-2 to +2): higher = both siRNAs protect from cisplatin killing; -2 means both sensitise. Rule for the call: 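siRNAs harmful alone (LDH or WST-1) get 0; others get +1 for less and -1 for more cisplatin killing; genes are active when the two siRNAs give the same sign, summing to ±2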. Meaning of the calls: active = both siRNAs shift cisplatin killing the same way; inactive = no consistent shift, or siRNA harmful alone.
The deposit covers about 23,000 reagents; shown is a random part of them. 455 of all reagents (2%) were called active. 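Active includes both protection and sensitisation; some change values fall well beyond the stated -50 to +50 range.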 Not all columns of the deposit are shown. Reagent sequences are not shown. The record does not give: the amount of reagent.

two-siRNA summed score (-2 to +2) | Call | gene
0 | inactive | TMED5
-1 | inactive | TTC31
0 | inactive | LOC389782
0 | inactive | LOC400605
1 | inactive | ITCH
0 | inactive | KIR2DL1
1 | inactive | GPM6A
0 | inactive | SLC35G2
0 | inactive | SNRPE
0 | inactive | NPM1
-1 | inactive | RCSD1
0 | inactive | GLYCTK
-1 | inactive | OPN1LW
0 | inactive | SMPDL3B
1 | inactive | MPV17
1 | inactive | LOC442746
0 | inactive | LOC440458
0 | inactive | SHOX2
0 | inactive | SUPT3H
0 | inactive | VGLL4
1 | inactive | FAM3C
0 | inactive | HMGXB4
0 | inactive | ZBTB2
0 | inactive | LOC442245
1 | inactive | FUT2
0 | inactive | LOC442731
0 | inactive | LOC197350
0 | inactive | SPRING1
0 | inactive | SUGT1
0 | inactive | OR2A14
0 | inactive | USP6NL-AS1
0 | inactive | OR52M1
0 | inactive | POLE4
0 | inactive | XTBD1
0 | inactive | LINC01142
0 | inactive | SLC26A1
0 | inactive | NDUFB8
1 | inactive | LINC00299
1 | inactive | SCYL2
